Positions count from the first letter of the chain named. Results are given in words; binding and its absence hold for the method and conditions named. Binding seen in cells or lysates may run through a third protein. Some entries that bind do so weakly or less than the wild type. For some of these results: Tags and fused reporters may be left off the sequences shown.

Sequences of proteins named here, by UniProt entry; tags and fusion partners are left off. A change or cut given only in a name is not applied to a line headed by its entry.
UniProt Q96CV9: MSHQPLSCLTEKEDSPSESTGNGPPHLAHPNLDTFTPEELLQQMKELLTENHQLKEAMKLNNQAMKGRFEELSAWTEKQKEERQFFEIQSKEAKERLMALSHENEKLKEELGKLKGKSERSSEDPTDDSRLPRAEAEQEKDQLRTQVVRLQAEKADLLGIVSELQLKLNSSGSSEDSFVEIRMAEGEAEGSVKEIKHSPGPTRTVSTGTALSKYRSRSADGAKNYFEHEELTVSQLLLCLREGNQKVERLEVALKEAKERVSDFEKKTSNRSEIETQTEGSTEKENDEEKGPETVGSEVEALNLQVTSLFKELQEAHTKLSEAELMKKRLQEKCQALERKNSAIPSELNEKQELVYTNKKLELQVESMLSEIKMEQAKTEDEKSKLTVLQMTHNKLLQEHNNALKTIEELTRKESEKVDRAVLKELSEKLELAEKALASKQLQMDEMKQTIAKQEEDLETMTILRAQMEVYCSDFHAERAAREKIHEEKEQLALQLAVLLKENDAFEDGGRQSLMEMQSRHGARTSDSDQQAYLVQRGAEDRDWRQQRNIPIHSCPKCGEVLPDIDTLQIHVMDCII

Assay [1] concerns the target T1, GFP-K38A-Tbk1 (catalytically inactive mutant of mouse Tbk1) (mouse) (UniProt Q9WUN2).
T1 sequence: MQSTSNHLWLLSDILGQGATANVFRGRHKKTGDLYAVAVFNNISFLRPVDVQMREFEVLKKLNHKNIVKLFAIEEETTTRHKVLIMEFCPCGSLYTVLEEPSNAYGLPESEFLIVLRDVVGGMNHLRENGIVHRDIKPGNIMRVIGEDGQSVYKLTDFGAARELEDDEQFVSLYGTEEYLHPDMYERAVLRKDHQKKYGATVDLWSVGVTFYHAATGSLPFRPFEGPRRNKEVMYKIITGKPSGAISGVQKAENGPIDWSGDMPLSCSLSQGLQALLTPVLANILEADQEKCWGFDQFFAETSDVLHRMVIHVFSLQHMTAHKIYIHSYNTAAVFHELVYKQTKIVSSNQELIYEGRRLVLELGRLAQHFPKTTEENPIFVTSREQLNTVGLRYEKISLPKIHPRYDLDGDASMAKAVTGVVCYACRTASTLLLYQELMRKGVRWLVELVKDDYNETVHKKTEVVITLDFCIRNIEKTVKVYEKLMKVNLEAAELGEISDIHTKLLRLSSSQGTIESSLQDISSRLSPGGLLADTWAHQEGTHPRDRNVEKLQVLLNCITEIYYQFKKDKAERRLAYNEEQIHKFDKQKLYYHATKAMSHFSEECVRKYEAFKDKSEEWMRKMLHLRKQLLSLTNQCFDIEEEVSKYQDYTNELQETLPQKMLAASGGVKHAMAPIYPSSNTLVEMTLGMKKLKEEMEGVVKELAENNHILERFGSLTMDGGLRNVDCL
The assay is described as follows: co-IP; RGC-5 cells co-transfected with plasmids for HA-tagged WT-OPTN or M98K-OPTN and GFP-tagged K38A-Tbk1 for 24 hrs; lysate immunoprecipitated with GFP antibody or control antibody; blot with HA and GFP antibodies.

The target of assay [2] is T2, cellular Tbk1 (TANK binding kinase 1), endogenous in RGC-5 cells (mouse (endogenous in RGC-5)) (UniProt Q9WUN2).
T2 sequence: T1 sequence with A38K
The assay is described as follows: co-IP; RGC-5 cells infected with adenoviruses expressing HA-tagged WT-OPTN or M98K-OPTN for 24 hrs; lysate (25 mM Tris-HCl pH 7.4, 150 mM NaCl, 0.8% Triton X-100, 5 mM EDTA) immunoprecipitated with Tbk1 antibody or control antibody at 4°C; blot with HA and Tbk1 antibodies.

On to “HA-tagged M98K-OPTN (glaucoma-associated variant of human optineurin) (from UniProt Q96CV9 1-577)”, for which the binding entry in assay [1] and in assay [2] was “binds” in each case.
As for “HA-tagged WT-OPTN (human optineurin) (from UniProt Q96CV9 1-577)”, the binding entry in assay [1] and in assay [2] was “binds” in each case.

The values above are taken from PMC4574030.
